This note sets out measurements from publication PMC10494373.

Results are given in words; binding and its absence hold for the method and conditions named. In cells and extracts the contact can be indirect. A result given as binding can be weak or reduced; the word gives no strength.

Experiment [1] concerns the target T1, catalase (CAT) (mouse (endogenous in mouse bone marrow-derived EPCs)) (UniProt P24270).
T1 sequence: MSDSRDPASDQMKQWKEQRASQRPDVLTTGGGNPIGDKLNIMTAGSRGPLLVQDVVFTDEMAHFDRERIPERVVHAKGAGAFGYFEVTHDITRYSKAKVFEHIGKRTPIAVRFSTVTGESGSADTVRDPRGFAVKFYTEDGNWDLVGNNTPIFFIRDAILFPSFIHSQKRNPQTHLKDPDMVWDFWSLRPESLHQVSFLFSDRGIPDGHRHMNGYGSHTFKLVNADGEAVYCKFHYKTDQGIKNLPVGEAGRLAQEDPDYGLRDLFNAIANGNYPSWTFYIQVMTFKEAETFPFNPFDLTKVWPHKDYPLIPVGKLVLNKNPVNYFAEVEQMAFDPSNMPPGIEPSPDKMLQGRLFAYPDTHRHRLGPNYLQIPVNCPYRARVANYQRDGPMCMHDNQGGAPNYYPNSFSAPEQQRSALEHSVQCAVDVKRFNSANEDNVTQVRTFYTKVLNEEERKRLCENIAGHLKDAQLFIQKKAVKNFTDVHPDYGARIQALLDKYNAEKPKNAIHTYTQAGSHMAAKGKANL
Description: co-IP; total protein of treated EPCs (2 x 10^7) in RIPA lysis buffer, precleared with rabbit IgG and Protein A+G agarose; IP with rabbit anti-catalase overnight at 4 C and blot with anti-p20, and the reverse (blot with anti-catalase).

Experiment [2] has as its target active caspase-1 (p20) (mouse (endogenous in mouse bone marrow-derived EPCs)). Described as above.

As to active caspase-1 (p20) (enzyme), the binding result in experiment [1] is “binds”.

B1: catalase (CAT) (enzyme, UniProt P24270 1-527)
chain: MSDSRDPASDQMKQWKEQRASQRPDVLTTGGGNPIGDKLNIMTAGSRGPLLVQDVVFTDEMAHFDRERIPERVVHAKGAGAFGYFEVTHDITRYSKAKVFEHIGKRTPIAVRFSTVTGESGSADTVRDPRGFAVKFYTEDGNWDLVGNNTPIFFIRDAILFPSFIHSQKRNPQTHLKDPDMVWDFWSLRPESLHQVSFLFSDRGIPDGHRHMNGYGSHTFKLVNADGEAVYCKFHYKTDQGIKNLPVGEAGRLAQEDPDYGLRDLFNAIANGNYPSWTFYIQVMTFKEAETFPFNPFDLTKVWPHKDYPLIPVGKLVLNKNPVNYFAEVEQMAFDPSNMPPGIEPSPDKMLQGRLFAYPDTHRHRLGPNYLQIPVNCPYRARVANYQRDGPMCMHDNQGGAPNYYPNSFSAPEQQRSALEHSVQCAVDVKRFNSANEDNVTQVRTFYTKVLNEEERKRLCENIAGHLKDAQLFIQKKAVKNFTDVHPDYGARIQALLDKYNAEKPKNAIHTYTQAGSHMAAKGKANL
Turning to B1, in experiment [2], the binding result was “binds”.
